Reference: PMC7156367, “Cell surface processing of the P1 adhesin of Mycoplasma pneumoniae identifies novel domains that bind host molecules” (Scientific Reports, 2020)
These are yes or no findings as the source states them, for the method shown. Binding can be weak; no strength is given. Tags and fused reporters may be left off the sequences shown.

Experiments:
Test in all cases: ELISA; 15 µg/ml of C-terminal P1 fragment bound to wells, incubated with host protein at several concentrations; detected with antiserum against the host protein, absorbance at 450 nm; both purified
[1] = target: T1, P1-30, synthetic C-terminal peptide of P1 adhesin (Mycoplasma pneumoniae)
T1 sequence (peptide): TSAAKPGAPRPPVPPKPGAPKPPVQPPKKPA

[2] = target: T2, P1-15, synthetic C-terminal peptide of P1 adhesin with N-terminal biotin (Mycoplasma pneumoniae)
T2 sequence (peptide, N-terminal biotin tag): PGAPKPPVQPPKKPA

[3] = target: T3, Recombinant protein RP15 (C-terminal region of P1 adhesin) (Mycoplasma pneumoniae)
T3 sequence: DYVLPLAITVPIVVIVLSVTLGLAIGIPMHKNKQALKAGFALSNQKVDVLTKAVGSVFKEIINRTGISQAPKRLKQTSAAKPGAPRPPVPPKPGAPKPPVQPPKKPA

| Substance | binding [1] | binding [2] | binding [3] |
| --- | --- | --- | --- |
| Human plasma fibronectin (ELISA) | binds | no binding | binds |
| Human plasma fibrinogen (complex) | binds | no binding | binds |
| Human Glu-plasminogen (ELISA) | binds | binds | binds |
